Here are results for one molecule from PMC9758165.

Sequences of proteins named here, by UniProt entry; tags and fusion partners are left off.
UniProt O96019: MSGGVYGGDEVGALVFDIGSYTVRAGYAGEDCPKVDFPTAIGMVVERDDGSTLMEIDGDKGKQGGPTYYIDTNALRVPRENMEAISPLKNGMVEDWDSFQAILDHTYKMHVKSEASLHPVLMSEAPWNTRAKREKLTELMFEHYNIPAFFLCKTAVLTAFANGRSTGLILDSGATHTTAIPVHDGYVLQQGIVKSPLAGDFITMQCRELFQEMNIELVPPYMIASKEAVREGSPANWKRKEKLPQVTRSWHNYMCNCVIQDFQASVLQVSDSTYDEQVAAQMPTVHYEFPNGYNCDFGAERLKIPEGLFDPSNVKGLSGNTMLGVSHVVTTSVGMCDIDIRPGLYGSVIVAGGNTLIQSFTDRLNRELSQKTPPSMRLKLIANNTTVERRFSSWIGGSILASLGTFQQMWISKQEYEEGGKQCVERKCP

Results are given in words; binding and its absence hold for the method and conditions named. Binding seen in cells or lysates may run through a third protein. Some results given as binding are weak or reduced against the parent protein; the word gives no strength.

In this assay the target is BAF53A (human (endogenous in DLD1)) (UniProt O96019). The assay is described as follows: co-IP; DLD1 cell lysate (50 mM Tris-Cl pH 7.5, 0.1% NP-40, 0.1% Triton-100, 150 mM NaCl, 0.1 M EDTA) incubated with BAF53A antibody or control IgG at 4 °C overnight, protein A/G agarose beads, immunoblot.

B1: P63 (protein, UniProt Q9H3D4 1-680)
chain: MNFETSRCATLQYCPDPYIQRFVETPAHFSWKESYYRSTMSQSTQTNEFLSPEVFQHIWDFLEQPICSVQPIDLNFVDEPSEDGATNKIEISMDCIRMQDSDLSDPMWPQYTNLGLLNSMDQQIQNGSSSTSPYNTDHAQNSVTAPSPYAQPSSTFDALSPSPAIPSNTDYPGPHSFDVSFQQSSTAKSATWTYSTELKKLYCQIAKTCPIQIKVMTPPPQGAVIRAMPVYKKAEHVTEVVKRCPNHELSREFNEGQIAPPSHLIRVEGNSHAQYVEDPITGRQSVLVPYEPPQVGTEFTTVLYNFMCNSSCVGGMNRRPILIIVTLETRDGQVLGRRCFEARICACPGRDRKADEDSIRKQQVSDSTKNGDGTKRPFRQNTHGIQMTSIKKRRSPDDELLYLPVRGRETYEMLLKIKESLELMQYLPQHTIETYRQQQQQQHQHLLQKQTSIQSPSSYGNSSPPLNKMNSMNKLPSVSQLINPQQRNALTPTTIPDGMGANIPMMGTHMPMAGDMNGLSPTQALPPPLSMPSTSHCTPPPPYPTDCSIVSFLARLGCSSCLDYFTTQGLTTIYQIEHYSMDDLASLKIPEQFRHAIWKGILDHRQLHEFSSPSHLLRTPSSASTVSVGSSETRGERVIDAVRFTLRQTISFPPRDEWNDFNFDMDARRNKQQRIKEEGE
In the case of B1, the binding result is “binds”.
